From PubChem BioAssay AID2685 (National Center for Advancing Translational Sciences (NCATS), 2010)
The list shows a part of the results. These are further read-outs of the screen, such as a control signal, another cell line or another target. No call is given for them. The list favours compounds with an active or inconclusive main result. The note in brackets gives the kind of curve behind each potency; many fits are weak.

Test: qHTS Assay for Lipid Storage Modulators in Drosophila S3 Cells;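 as to cell number change: cells counted by Cell Tracker Red CMTPX staining in the red channel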
Settings: BODIPY lipid droplet fluorescence, 18-24 h; for cell number change: measured here: cell count max response, cells fed with added oleic acid
How it was run: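 Drosophila S3 cells loaded with oleic acid (400 uM, as added) and compounds at several concentrations; lipid droplets imaged by 488-nm laser-scanning cytometry, 500–530 nm intensity and object ratio to cell channel. Percent activity normalized to 20 uM Triacsin C.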

[1] = measured here: lipid fluorescence (Fed channel) AC50, cells fed with added oleic acid
[2] = measured here: cell number channel AC50, cells fed with added oleic acid

COC(=O)c1ccc(C(=O)OC)c(NC(=O)CN2CCCCC2)c1
cell number change: 14.8%

CC(C)CNS(=O)(=O)c1ccc(C(=O)Nc2ccc3c(c2)OCO3)cc1
cell number change: 11.3%

Cn1c(CNc2nc3ccccc3n2C)nc2ccccc21
cell number change: -11.2%
AC50 [1]: 18.4 µM [falling, single point]

CCOC(=O)c1cnc(SC)nc1Sc1ccc(Cl)cc1Cl
cell number change: 34.5%
AC50 [2]: 32.6 µM [rising, single point]

CCCCCN(C(=O)CCC(=O)OCC(=O)NCc1cccc(OC)c1)c1c(N)n(CCCC)c(=O)[nH]c1=O
cell number change: 31.7%
AC50 [2]: 29.1 µM [rising, single point]
AC50 [1]: 20.6 µM [rising, single point]

Cc1ccc(CSc2nc3ccccc3cc2C=O)cc1
cell number change: -19.9%

N#CCSc1nc2cc(C(=O)N3CCCC3)ccc2c(=O)n1Cc1ccccc1
cell number change: 0.446%
AC50 [2]: 0.00461 µM [falling, full curve, poor fit]

CC1CC(C)CN(C(=O)COC(=O)c2cc3ccccc3cc2O)C1 (configuration not stated)
cell number change: -29.2%
AC50 [2]: 0.58 µM [falling, full curve, poor fit]
AC50 [1]: 2.06 µM [falling, partial curve]

COc1ccc(N2CCN(S(=O)(=O)c3ccc4c(c3)CCCC4)CC2)c([N+](=O)[O-])c1
cell number change: -19.9%
AC50 [2]: 0.092 µM [falling, full curve, poor fit]

Cc1ccccc1OCCn1c(=S)[nH]c2ccccc21
cell number change: -3.85%
AC50 [1]: 29.1 µM [rising, single point]

CCOc1ccc(CN(C)C(=O)c2ccc3ccccc3n2)cc1
cell number change: 12.5%
AC50 [1]: 10.3 µM [falling, partial curve, poor fit]

COc1ccc(CC(=O)Nc2nc(C)cs2)cc1OC
cell number change: -29.1%
AC50 [1]: 2.06 µM [rising, partial curve]

Cc1nc2sc(C(c3ccc(C(C)C)cc3)N3CCN(CCO)CC3)c(O)n2n1 (configuration not stated)
cell number change: -79.6%
AC50 [2]: 29.1 µM [falling, single point]

CCOc1cc2[nH]c(=S)n(CCCC(=O)NCc3ccccn3)c(=O)c2cc1OCC
cell number change: -24.8%
AC50 [2]: 2.06 µM [falling, partial curve, poor fit]
AC50 [1]: 2.06 µM [falling, partial curve]

O=c1[nH]c2ccccc2[n+]([O-])c1-c1ccccc1
cell number change: -0.271%

Cc1c(OC(=O)CNC(=O)OC(C)(C)C)ccc2c3c(c(=O)oc12)CCC3
cell number change: 1.78%
AC50 [1]: 1.64 µM [falling, partial curve]

N#Cc1c(-c2ccccc2)c(-c2ccccc2)nn(CC(=O)NNC(=O)Nc2ccccc2)c1=O
cell number change: 28.7%
AC50 [2]: 6.51 µM [rising, single point]
AC50 [1]: 6.51 µM [rising, single point]

Cc1ccc(-c2ccc(/C=N/O)o2)cc1[N+](=O)[O-]
AC50 [2]: 0.291 µM [rising, partial curve]

CCc1nnc(N/N=C/c2cc(Br)c(O)cc2O)n1N
cell number change: -39.4%
AC50 [2]: 10.3 µM [falling, partial curve]

COCCn1c(=O)[nH]c2cc(C(=O)NCCc3ccc(S(N)(=O)=O)cc3)ccc2c1=O
AC50 [1]: 0.517 µM [falling, single point]

CC(=O)Nc1cccc(OCCCNC(=O)c2ccc(C(C)(C)C)cc2)c1
cell number change: 26.3%
AC50 [2]: 0.0291 µM [rising, full curve, poor fit]
AC50 [1]: 1.3 µM [rising, full curve, poor fit]

COc1ccc(CC(=O)OC(C)CN2CCCCC2)cc1 (configuration not stated)
cell number change: -4.18%
AC50 [1]: 0.00517 µM [falling, full curve]

C=CCN(Cc1ccc(Cl)s1)C(=O)CNC(=O)CNC(=O)c1ccc(Cl)cc1Cl
cell number change: 13.7%
AC50 [1]: 18.4 µM [rising, partial curve, poor fit]

Cn1cccc1/C=N\NC(=O)C1COc2ccccc2O1 (configuration not stated)
cell number change: -1.15%
AC50 [1]: 29.1 µM [rising, single point]

COc1ccc(N(CC(=O)NCc2ccccc2Cl)S(=O)(=O)c2c(C)noc2C)cc1
cell number change: 15.3%
AC50 [1]: 0.58 µM [rising, single point]

Cn1c(=O)c2c(nc(CN3CCOCC3)n2CCc2ccccc2)n(C)c1=O
AC50 [2]: 6.51 µM [rising, partial curve, poor fit]

CCOC(=O)c1cc(OCC(=O)NC(C)C(C)C)cc(C(=O)OCC)c1 (configuration not stated)
cell number change: -0.79%
AC50 [1]: 0.146 µM [rising, full curve, poor fit]

CCN(C(=O)Cc1c(C(=O)O)n(C)c2ccccc12)c1cccc(C)c1
cell number change: -8.11%

COC(=O)[C@@H](Cc1c[nH]c2ccccc12)NC(=O)CNC(=O)c1ccccc1OC
cell number change: 19.7%

NS(=O)(=O)c1ccc(-c2cccc(/C=C3\SC(=O)NC3=O)c2)cc1
cell number change: -1.8%

CCC(=O)n1nc(-c2cccnc2)nc1NCc1ccc(OC)cc1
cell number change: -11.8%
AC50 [1]: 25.9 µM [falling, single point]

CSCCC(NC(=O)COc1ccccc1)C(=O)NCCOc1ccccc1 (configuration not stated)
cell number change: -13.1%
AC50 [2]: 6.51 µM [falling, single point]
AC50 [1]: 6.51 µM [falling, single point]

CC(=O)c1ccc(-n2c(C)ccc2-c2ccccc2)cc1
AC50 [1]: 6.51 µM [falling, single point]

O=C(CCCN1C(=O)[C@H]2CC=CC[C@H]2C1=O)NCc1nc(-c2ccccc2)no1
cell number change: 16.1%

COc1cccc(CNC(=O)COC(=O)c2ccc(C(=O)c3ccccc3)cc2)c1
cell number change: -55.3%
AC50 [2]: 20.6 µM [falling, partial curve, poor fit]
AC50 [1]: 23.1 µM [falling, partial curve, poor fit]

Cc1ccc(O)c(NC(=O)c2cccc(S(=O)(=O)N3CCCCC3)c2)c1
cell number change: -13.1%

CCN1CCN(S(=O)(=O)c2ccc(Cl)c(C(=O)NC3CCCCC3)c2)CC1
cell number change: 1.76%
AC50 [1]: 6.51 µM [rising, single point]

CC(C)(C)OC(=O)N1CCN(C(=O)c2nc[nH]c2C(=O)N2CCN(c3ccccc3)CC2)CC1
cell number change: 10.5%
AC50 [2]: 0.092 µM [falling, single point]

O=C(OCc1cc2ccccc2[nH]c1=O)C1CCCCC1
cell number change: -13.4%
AC50 [1]: 32.6 µM [falling, single point]
